± gives the standard deviation of the averaged measurements. Values are relative to the signal before dosing, not to a vehicle control; the signal also falls without drug.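 Labels refer to human fibroblasts, largely primary: uterine (C12385, HUF), lung (H6013), bone (Hs27A), adrenal (HADF), skin (WS1), plus mammary HMF and breast cancer-associated Hs343T. Cancer lines are basal-like or mesenchymal-like triple-negative breast cancer. The paper counts as hits responses shifting over 3x the replicate standard deviation. The tissue of the other fibroblasts is not given here.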
System: MDAMB468
Experiment: relative JC-1 red fluorescence (viability) vs pre-drug, coculture with fibroblast (fraction); higher = more viable cancer cells
Method: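 JC-1 labelled TNBC cells cocultured 1:1 (1,500 cells each) with CellTrace Violet stained primary or stromal fibroblasts in 384-well plates in FluoroBrite medium, treated with one of 42 anticancer drugs at 0.1, 1, 10 or 100 uM. JC-1 red fluorescence (mitochondrial integrity in cancer cells only) was read by plate reader every 8 h for 72 h. Values are normalised to each well's pre-drug value. The stock of one drug was tenfold lower, so its dose labels may be too high.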

O=NN(CCCl)C(=O)NCCCl [Carmustine]
relative JC-1 red fluorescence
Conditions | 8 h | 16 h | 24 h | 32 h | 40 h | 48 h | 56 h | 64 h | 72 h
10 µM, coculture fibroblast: C12385 | 0.8787 ± 0.006 | 0.8291 ± 0.0076 | 0.7681 ± 0.0019 | 0.6965 ± 0.0012 | 0.6505 ± 0.0012 | 0.6256 ± 0.005 | 0.5839 ± 0.00069 | 0.5494 ± 0.0026 | 0.5278 ± 0.0021
10 µM, coculture fibroblast: H6013 | 0.871 ± 0.017 | 0.817 ± 0.0089 | 0.782 ± 0.021 | 0.769 ± 0.033 | 0.735 ± 0.032 | 0.729 ± 0.037 | 0.697 ± 0.033 | 0.676 ± 0.031 | 0.632 ± 0.027
10 µM, coculture fibroblast: H6019 | 0.849 ± 0.044 | 0.7972 ± 0.00011 | 0.785 ± 0.008 | 0.74 ± 0.012 | 0.702 ± 0.02 | 0.684 ± 0.027 | 0.629 ± 0.035 | 0.594 ± 0.048 | 0.564 ± 0.053
10 µM, coculture fibroblast: H6076 | 0.9733 ± 0.0078 | 0.84 ± 0.077 | 0.9113 ± 0.0058 | 0.91 ± 0.011 | 0.8347 ± 0.0053 | 0.8095 ± 0.0056 | 0.761 ± 0.012 | 0.7343 ± 0.0048 | 0.778 ± 0.022
10 µM, coculture fibroblast: H6231 | 0.823 ± 0.02 | 0.925 ± 0.017 | 0.852 ± 0.022 | 0.8614 ± 0.0059 | 0.7883 ± 0.0045 | 0.76252 ± 2.1e-05 | 0.707 ± 0.0031 | 0.6707 ± 0.0062 | 0.6604 ± 0.0032
10 µM, coculture fibroblast: HADF | 0.889 ± 0.015 | 0.848 ± 0.021 | 0.7927 ± 0.0016 | 0.7722 ± 0.0057 | 0.7196 ± 0.0052 | 0.712 ± 0.013 | 0.661 ± 0.014 | 0.641 ± 0.021 | 0.591 ± 0.024
10 µM, coculture fibroblast: HCFa | 0.868 ± 0.011 | 0.814 ± 0.0092 | 0.776 ± 0.02 | 0.758 ± 0.021 | 0.698 ± 0.024 | 0.693 ± 0.031 | 0.651 ± 0.014 | 0.622 ± 0.015 | 0.573 ± 0.017
10 µM, coculture fibroblast: HCPF | 0.957 ± 0.041 | 0.95 ± 0.053 | 0.961 ± 0.027 | 0.966 ± 0.018 | 0.887 ± 0.022 | 0.867 ± 0.019 | 0.825 ± 0.02 | 0.807 ± 0.018 | 0.797 ± 0.025
10 µM, coculture fibroblast: HHSteC | 0.9013 ± 0.0057 | 0.866 ± 0.024 | 0.829 ± 0.0086 | 0.8 ± 0.012 | 0.7505 ± 0.0055 | 0.74614 ± 0.0004 | 0.684 ± 0.0092 | 0.653 ± 0.0078 | 0.603 ± 0.019
10 µM, coculture fibroblast: HMF | 0.908 ± 0.021 | 0.906 ± 0.11 | 0.969 ± 0.041 | 0.951 ± 0.045 | 0.87 ± 0.05 | 0.844 ± 0.05 | 0.802 ± 0.06 | 0.778 ± 0.051 | 0.758 ± 0.049
10 µM, coculture fibroblast: HPFa | 0.918 ± 0.029 | 0.868 ± 0.062 | 0.8 ± 0.085 | 0.728 ± 0.081 | 0.664 ± 0.093 | 0.646 ± 0.093 | 0.573 ± 0.095 | 0.533 ± 0.091 | 0.457 ± 0.079
10 µM, coculture fibroblast: HUF | 0.8995 ± 0.0018 | 0.826 ± 0.018 | 0.745 ± 0.015 | 0.6777 ± 0.0034 | 0.62 ± 0.0079 | 0.592 ± 0.013 | 0.551 ± 0.013 | 0.525 ± 0.011 | 0.501 ± 0.022
10 µM, coculture fibroblast: Hs5 | 0.778 ± 0.046 | 0.853 ± 0.19 | 0.82 ± 0.15 | 0.941 ± 0.084 | 0.871 ± 0.091 | 0.836 ± 0.1 | 0.791 ± 0.097 | 0.755 ± 0.11 | 0.786 ± 0.1
10 µM, coculture fibroblast: Hs27A | 0.842 ± 0.017 | 0.781 ± 0.0097 | 0.754 ± 0.023 | 0.747 ± 0.024 | 0.689 ± 0.043 | 0.675 ± 0.049 | 0.631 ± 0.048 | 0.597 ± 0.053 | 0.54 ± 0.048
10 µM, coculture fibroblast: Hs343T | 0.9128 ± 0.0012 | 0.98 ± 0.021 | 0.909 ± 0.038 | 0.901 ± 0.036 | 0.826 ± 0.027 | 0.809 ± 0.035 | 0.745 ± 0.024 | 0.73 ± 0.025 | 0.705 ± 0.029
10 µM, coculture fibroblast: WS1 | 0.8671 ± 0.0036 | 0.7942 ± 0.0075 | 0.706 ± 0.0088 | 0.628 ± 0.0086 | 0.5707 ± 0.0033 | 0.529 ± 0.0072 | 0.493 ± 0.012 | 0.447 ± 0.0054 | 0.4224 ± 0.0023
100 µM, coculture fibroblast: C12385 | 0.83318 ± 0.00081 | 0.8034 ± 0.0022 | 0.78 ± 0.018 | 0.7265 ± 0.0024 | 0.6931 ± 0.0013 | 0.69216 ± 0.00061 | 0.6595 ± 0.0061 | 0.638 ± 0.0018 | 0.6192 ± 0.00094
100 µM, coculture fibroblast: H6013 | 0.875 ± 0.01 | 0.87327 ± 0.00083 | 0.8395 ± 0.0072 | 0.8347 ± 0.0027 | 0.8345 ± 0.0029 | 0.8499 ± 0.0079 | 0.835 ± 0.019 | 0.837 ± 0.019 | 0.787 ± 0.015
100 µM, coculture fibroblast: H6019 | 0.8353 ± 0.005 | 0.818 ± 0.022 | 0.799 ± 0.043 | 0.754 ± 0.075 | 0.713 ± 0.091 | 0.703 ± 0.1 | 0.667 ± 0.11 | 0.633 ± 0.12 | 0.611 ± 0.12
100 µM, coculture fibroblast: H6076 | 0.9115 ± 0.0026 | 0.927 ± 0.025 | 0.8926 ± 0.0046 | 0.913 ± 0.019 | 0.869 ± 0.025 | 0.88 ± 0.041 | 0.863 ± 0.049 | 0.868 ± 0.044 | 0.918 ± 0.061
100 µM, coculture fibroblast: H6231 | 0.7848 ± 0.0062 | 0.85 ± 0.032 | 0.817 ± 0.015 | 0.818 ± 0.015 | 0.77 ± 0.014 | 0.7494 ± 0.0033 | 0.703 ± 0.011 | 0.684 ± 0.026 | 0.682 ± 0.034
100 µM, coculture fibroblast: HADF | 0.8741 ± 0.0076 | 0.8842 ± 0.0084 | 0.8369 ± 0.0016 | 0.8379 ± 0.0072 | 0.816 ± 0.039 | 0.811 ± 0.047 | 0.768 ± 0.042 | 0.765 ± 0.051 | 0.7 ± 0.049
100 µM, coculture fibroblast: HCFa | 0.91 ± 0.037 | 0.912 ± 0.063 | 0.893 ± 0.083 | 0.878 ± 0.083 | 0.858 ± 0.092 | 0.866 ± 0.11 | 0.83 ± 0.12 | 0.811 ± 0.12 | 0.76 ± 0.11
100 µM, coculture fibroblast: HCPF | 0.852 ± 0.013 | 0.876 ± 0.045 | 0.839 ± 0.021 | 0.8437 ± 0.0025 | 0.7762 ± 0.0036 | 0.751 ± 0.013 | 0.716 ± 0.026 | 0.705 ± 0.036 | 0.707 ± 0.051
100 µM, coculture fibroblast: HHSteC | 0.859 ± 0.066 | 0.822 ± 0.087 | 0.791 ± 0.1 | 0.76 ± 0.12 | 0.744 ± 0.12 | 0.741 ± 0.12 | 0.705 ± 0.12 | 0.692 ± 0.12 | 0.653 ± 0.12
100 µM, coculture fibroblast: HMF | 0.849 ± 0.035 | 0.913 ± 0.063 | 0.867 ± 0.083 | 0.85 ± 0.088 | 0.773 ± 0.085 | 0.765 ± 0.086 | 0.728 ± 0.081 | 0.714 ± 0.083 | 0.709 ± 0.08
100 µM, coculture fibroblast: HPFa | 0.913 ± 0.026 | 0.906 ± 0.049 | 0.868 ± 0.064 | 0.81 ± 0.059 | 0.797 ± 0.065 | 0.797 ± 0.065 | 0.737 ± 0.061 | 0.728 ± 0.06 | 0.653 ± 0.058
100 µM, coculture fibroblast: HUF | 0.88 ± 0.0094 | 0.828 ± 0.02 | 0.808 ± 0.021 | 0.756 ± 0.018 | 0.732 ± 0.015 | 0.721 ± 0.015 | 0.6844 ± 0.0039 | 0.679 ± 0.0067 | 0.6652 ± 0.001
100 µM, coculture fibroblast: Hs5 | 0.9391 ± 0.0039 | 0.9222 ± 0.0084 | 0.909 ± 0.0098 | 0.9052 ± 0.0087 | 0.852 ± 0.019 | 0.839 ± 0.021 | 0.823 ± 0.034 | 0.798 ± 0.029 | 0.835 ± 0.032
100 µM, coculture fibroblast: Hs27A | 0.839 ± 0.0095 | 0.8839 ± 0.0077 | 0.8256 ± 0.0029 | 0.8318 ± 0.0018 | 0.8167 ± 0.0049 | 0.81608 ± 0.00071 | 0.794 ± 0.0094 | 0.781 ± 0.011 | 0.729 ± 0.0092
100 µM, coculture fibroblast: Hs343T | 0.8512 ± 0.003 | 0.8907 ± 0.0045 | 0.8225 ± 0.0011 | 0.802 ± 0.012 | 0.728 ± 0.011 | 0.719 ± 0.013 | 0.685 ± 0.014 | 0.663 ± 0.018 | 0.643 ± 0.018
100 µM, coculture fibroblast: WS1 | 0.845 ± 0.0092 | 0.781 ± 0.021 | 0.741 ± 0.03 | 0.682 ± 0.041 | 0.648 ± 0.044 | 0.615 ± 0.043 | 0.587 ± 0.049 | 0.558 ± 0.048 | 0.545 ± 0.047
